Data on five molecules can be found in article PMC8575317.

Protein sequences, listed by entry. Tags and fused reporters are not part of them. Lines headed by an entry give the natural chain unless they say otherwise; changes in a name come on top.
UniProt A4HXC9: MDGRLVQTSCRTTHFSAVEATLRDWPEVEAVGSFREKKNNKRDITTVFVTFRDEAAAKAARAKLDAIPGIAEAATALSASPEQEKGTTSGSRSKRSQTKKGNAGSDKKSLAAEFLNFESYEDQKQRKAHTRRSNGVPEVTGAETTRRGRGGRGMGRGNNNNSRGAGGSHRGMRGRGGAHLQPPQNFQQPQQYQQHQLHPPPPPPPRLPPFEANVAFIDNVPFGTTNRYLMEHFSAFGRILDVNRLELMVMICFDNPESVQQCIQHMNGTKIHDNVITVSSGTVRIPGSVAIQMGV
UniProt E9AHW1: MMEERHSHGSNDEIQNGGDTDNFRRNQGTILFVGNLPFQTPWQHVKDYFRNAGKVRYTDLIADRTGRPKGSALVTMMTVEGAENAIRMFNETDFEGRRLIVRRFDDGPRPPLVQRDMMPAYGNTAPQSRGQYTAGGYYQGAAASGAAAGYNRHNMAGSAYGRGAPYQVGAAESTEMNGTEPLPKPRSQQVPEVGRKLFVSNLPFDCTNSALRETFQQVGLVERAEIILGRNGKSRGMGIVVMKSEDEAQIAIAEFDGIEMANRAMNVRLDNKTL
UniProt A4HSG7: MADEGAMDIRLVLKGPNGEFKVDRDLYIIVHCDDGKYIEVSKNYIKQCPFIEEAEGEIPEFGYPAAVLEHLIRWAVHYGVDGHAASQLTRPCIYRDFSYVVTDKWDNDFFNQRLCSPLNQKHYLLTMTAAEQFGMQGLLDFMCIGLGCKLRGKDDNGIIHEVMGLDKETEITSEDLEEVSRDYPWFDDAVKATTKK
UniProt A4I5E2: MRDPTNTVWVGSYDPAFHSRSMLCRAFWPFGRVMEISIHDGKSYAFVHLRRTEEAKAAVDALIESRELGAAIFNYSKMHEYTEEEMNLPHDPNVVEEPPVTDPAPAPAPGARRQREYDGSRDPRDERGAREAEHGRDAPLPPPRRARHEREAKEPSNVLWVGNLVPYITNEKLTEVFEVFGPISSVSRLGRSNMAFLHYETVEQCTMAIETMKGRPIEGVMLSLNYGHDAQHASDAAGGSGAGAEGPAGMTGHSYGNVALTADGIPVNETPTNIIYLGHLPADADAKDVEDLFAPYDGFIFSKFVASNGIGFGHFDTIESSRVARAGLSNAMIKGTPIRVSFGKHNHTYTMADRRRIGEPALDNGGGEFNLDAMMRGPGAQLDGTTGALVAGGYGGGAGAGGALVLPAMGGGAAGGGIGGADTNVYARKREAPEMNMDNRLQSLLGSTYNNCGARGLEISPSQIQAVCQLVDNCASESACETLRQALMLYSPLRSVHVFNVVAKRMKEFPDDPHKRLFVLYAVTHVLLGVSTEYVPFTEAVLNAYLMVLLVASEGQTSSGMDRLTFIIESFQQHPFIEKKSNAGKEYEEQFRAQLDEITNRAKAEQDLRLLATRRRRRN

No constants are given. Whether binding was seen depends on the method and setting. Binding seen in cells or lysates may run through a third protein. These calls come from enrichment with a bait or labelling near it, and not all partners need be listed.

Experiment [1] deals with HA-tagged L. infantum RBP23 (L. infantum) (UniProt A4HXC9). The experiment can be described thus: affinity purification with mass spectrometry; anti-HA magnetic beads, HA-tagged RBP23 or DRBD2 from L. infantum cytoplasmic extracts (nitrogen cavitation), 1 h at 4 C, washed with PBS, not RNase treated; control: extracts of non-transfected cells; two independent experiments.
The target in experiment [2] is HA-tagged L. infantum DRBD2 (L. infantum) (UniProt E9AHW1). The experiment is described as above.

“Skp1 (S-phase kinase-associated protein 1)-like (from UniProt A4HSG7)”: the binding result in experiment [1] and in experiment [2] was “binds” in each case.
As to “Three RRMs containing protein 2 (from UniProt A4I5E2)”, the binding result in experiment [1] and in experiment [2] was “binds” throughout.

B1: Poly(A)-binding protein 2 (protein, UniProt A4IBV3 1-585)
chain: MAFTGPNPSIWVGGLDPDLQEQKLYDYFVRIGPVTSVRVCVDSATQKSLGYGYVNFQDPADAEKALDQAGSKLGSRYLRIAKIQRDPSKRRSGVNNILVKKLPKSVDTYALKEMFSKFGRLTAIGLACDEKGESRGYARISFEREESAVDAVREMDGMEMDGQAIVVERYQAQHRDELLKQFTNLYVKNLDPAVTDEKLRAFFAKYGEVSSAKVRDLGAVQSEAGLGYVAFQKHEDAARAVEELNGKECEISKAGSPLDVSRFRSREERQRDRERQRRERAQQHSKYPNLYVKGFDDTVTSERLEELFQRYGETVSVTVMMDKETGVSRCFGFVSMKDQNAASQAIQELNGSTFLSPRPLFVTYALRKDARRQNLEERSKQFRVRQNPMGGPGMGAMPPIGFMGPQMFNNVNMPFMNPRVPIMPMNGMNGIGGMNGMGGMNGVGGVGGMGGMGGMGGMGGMGGMGGMGGMARPMAPNAMSQMRSRPMPQKPPMQSLMPQQHQQAPPQGQNLAAVLANLNPEQQKNVLGERLYSYIVRSHPSVAAKITGMLLEMDNSEILNMLDSPTMLDSKIAEAQDVLNRHMSV
On to B1, for which the binding result in experiment [1] and in experiment [2] was “binds” throughout.

B2: Poly(A)-binding protein 3 (protein, UniProt A4I150 1-544)
chain: MVVPVQRTSVYVGDLPIDLPRPEEAINNLFSTVAPVVSVKVCRDMATQRSLGYGYVNFQTTADAEKVIDALNYTGIAPGLQIRVMFSIRDPLQRKSGMNNVFVKKLDTAINAKELQAAFTKCGRVLSCKVALDSAGNSKGYGFVQFETAEGAKAALDMNGSKLGDSEVVVAPFVRRVDREVMAAKSFRNIYIKNIAAAATEADVKAAAEKFGKVNSLFLSEHAPFPTKFALVAFEEHEAAVQAIAALNESEESGLTEKAAKLVVCRALSKSERDREKKKAASLYQNHGRNLYVKHLPDDITDDKLREIFEPFGKITSCAIMKEPNGTFKGFAFVCFEDRQHASAALRSLNGQPLEHSKKPLYVSHAEQKDMRIRLLQQRRAAMRHQSRMVPPMNTFPQQWPRHPFPHMVPPMMPPPPPPNMGMPQFMSGPMIRRPAMEPHLMQGEPMRPPNRYTQPREQYPPQQRQDGVDMNYLSTLSPEQQKNYLGELLYSRILPLESSNAAKITGMLLEMSREEIFEILADHFALLSKIQEANAVLQQHTGN
B2: the binding entry in experiment [1] and in experiment [2] was “binds” each time.

B3: Eukaryotic translation initiation factor 4G3 (protein, UniProt A4HX58 1-635)
chain: MQFTVEQIRSVRNNYLEPPYPGFSLDEVVRRRRLTQTKLVRGENAWVAKGTAQTTEEWVQRLLHGTLNKLTEENKDIMIDKLLTKELFATEDIMNMVVNIIFKKALDEPENSKLYAGVCHSLALYEANVLRDGHKGERPQSQLRDAIISTVQHEFRTLSKELSKMEDKSEEELEYERSNVMRRKRSNMRFIGELYLCTALTHSTMFTVMDLTMRCSDKTGFPSSENIELLAALLNTIGDRLDQNHKKTLDRYFTSLENFNKKPDCPYPPRIRFKIMDLLDLRKRGWGSKPKPVKAALPPSHGKDKKCATAPPPKKGGRDQGSAAAASKSWRDAATMKTGTAAAPASSTGKGLNGRGTSSASPAANTTALSTSAAVTVAATAPAGASFRDEASPQVPLVKFELRVASMFQEWVADRTNDVILHWVDQFNTCDRFFESESELCVAVAQEVIHSACTTTRKDAQREAFSFLVVGLYMIDTEVFDGFASALASAIEDGLLEDVPKFGERFMSMLRLTSTEQETRADVYFDAANVLRLTYNRLESPDDSAVDTLMSFWDRVPLPSTDEENMIRMDLDVVYSLCNPEGAQDGLEKLLSRIIHSMLQMQLMDAEVLDEFLCLDVQEGVCAKVIADYKERFPK
Take B3: the binding result in experiment [1] and in experiment [2] was “binds” in each case.
